Test results reported in paper PMC8585052.

Target: FLAG-tagged two NZF domains of HOIP (NZF1/2) (human)
Assay: co-IP; tagged proteins co-transfected into HEK293 cells, lysed after 48 h (50 mM Tris-HCl pH 7.5, 10 mM MgCl2, 100 mM NaCl, 0.5% Nonidet P40, 10% glycerol); immunoprecipitated overnight at 4 °C with the indicated antibody plus protein A/G agarose or anti-FLAG M2 gel; Western blot

B1: HA-tagged PKP2 N348 (domain or fragment, UniProt Q99959-2 1-348)
chain: MAAPGAPAEYGYIRTVLGQQILGQLDSSSLALPSEAKLKLAGSSGRGGQTVKSLRIQEQVQQTLARKGRSSVGNGNLHRTSSVPEYVYNLHLVENDFVGGRSPVPKTYDMLKAGTTATYEGRWGRGTAQYSSQKSVEERSLRHPLRRLEISPDSSPERAHYTHSDYQYSQRSQAGHTLHHQESRRAALLVPPRYARSEIVGVSRAGTTSRQRHFDTYHRQYQHGSVSDTVFDSIPANPALLTYPRPGTSRSMGNLLEKENYLTAGLTVGQVRPLVPLQPVTQNRASRSSWHQSSFHSTRTLREAGPSVAVDSSGRRAHLTVGQAAAGGSGNLLTERSTFTDSQLGNAD
binding: binds

These are yes or no findings as the source states them, for the method shown. In cells and extracts the contact can be indirect. Binding calls can cover weak binding; strength is not graded here. Where a sequence is shown, tags or fusion partners need not be part of it.
